Test results as given in patent publication US20210220331A1, “INHIBITORS OF IRES-MEDIATED PROTEIN SYNTHESIS” (The Regents of the University of California, priority 2016, published 2021).
At least one structure is not confirmed: it was looked up by name or label, or the drawing left a doubt.

How the values were obtained:
human c-myc IRES = assay: Dicistronic IRES mRNA reporter assay (firefly luciferase), c-myc IRES; format: cell-based; conditions: LN229 cells, mTOR inhibitor alone
Experimental: (§1) Western blot and quantitative RT-PCR analyses were performed as previously described (19). For Western blotting, cells or tissues were lysed in RIPA (lysis) buffer containing protease inhibitor cocktail and phosSTOP phosphatase inhibitor cocktail (Roche) and extracts resolved by SDSPAGE. Proteins were transferred to PVDF membranes and incubated with the indicated antibodies. For IRES reporter assays, the indicated mRNA reporters were cotransfected into cells with pSVβ-galactosidase to normalize for transfection efficiency as described previously (16). Cells were harvested 18 h following transfection and Renilla, firefly and β-galactosidase activities determined using the Dual-Glo Luciferase and β-galactosidase assay systems (Promega).
(§2) (B) Schematic diagrams of the dicistronic constructs used in this study. […] Input and bound fractions were analyzed by immunoblotting using hnRNP A1 antibodies. […] Bound CCND1 or c-MYC RNAs were detected via RT-PCR. […]
(§3) Several dicistronic IRES mRNA reporter constructs were utilized, shown in FIG. 1B, in which the indicated IRES sequences were inserted within the intercistronic region. LN229 cells transiently transfected with these constructs were assayed for Renilla and firefly luciferase activities, which are readouts of cap-dependent and IRES-mediated translation initiation, respectively (16). […]

human cyclin D1 IRES = assay: Dicistronic IRES mRNA reporter assay (firefly luciferase), cyclin D1 IRES; format: cell-based; conditions: LN229 cells, mTOR inhibitor alone
Experimental: as §1, §2, §3

CO[C@H]1C[C@@H]2CC[C@@H](C)[C@@](O)(O2)C(=O)C(=O)N2CCCC[C@H]2C(=O)O[C@H]([C@H](C)C[C@@H]2CC[C@@H](O)[C@H](OC)C2)CC(=O)[C@H](C)/C=C(\C)[C@@H](O)[C@@H](OC)C(=O)[C@H](C)C[C@H](C)/C=C/C=C/C=C/1C [rapamycin, reference compound]
c-MYC IRES activity on mTOR inhibitor treatment (human c-myc IRES): dramatic induction
cyclin D1 IRES activity on mTOR inhibitor treatment (human cyclin D1 IRES): dramatic induction
